Experimental findings from the supplement of paper PMC6411743 are described below.

Protein sequences, listed by entry. Tags and fused reporters are not part of them. Lines headed by an entry give the natural chain unless they say otherwise; changes in a name come on top.
UniProt Q12962, whole entry: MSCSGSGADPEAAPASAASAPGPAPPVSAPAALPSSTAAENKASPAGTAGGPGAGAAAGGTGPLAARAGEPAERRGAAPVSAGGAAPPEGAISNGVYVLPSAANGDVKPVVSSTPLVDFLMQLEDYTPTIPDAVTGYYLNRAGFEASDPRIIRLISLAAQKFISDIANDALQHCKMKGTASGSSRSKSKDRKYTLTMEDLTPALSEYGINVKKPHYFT
UniProt Q01469, whole entry: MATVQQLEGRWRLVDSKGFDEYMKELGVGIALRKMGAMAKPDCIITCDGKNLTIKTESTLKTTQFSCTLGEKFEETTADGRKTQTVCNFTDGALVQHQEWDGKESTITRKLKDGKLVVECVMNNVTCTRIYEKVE
UniProt Q08752, whole entry: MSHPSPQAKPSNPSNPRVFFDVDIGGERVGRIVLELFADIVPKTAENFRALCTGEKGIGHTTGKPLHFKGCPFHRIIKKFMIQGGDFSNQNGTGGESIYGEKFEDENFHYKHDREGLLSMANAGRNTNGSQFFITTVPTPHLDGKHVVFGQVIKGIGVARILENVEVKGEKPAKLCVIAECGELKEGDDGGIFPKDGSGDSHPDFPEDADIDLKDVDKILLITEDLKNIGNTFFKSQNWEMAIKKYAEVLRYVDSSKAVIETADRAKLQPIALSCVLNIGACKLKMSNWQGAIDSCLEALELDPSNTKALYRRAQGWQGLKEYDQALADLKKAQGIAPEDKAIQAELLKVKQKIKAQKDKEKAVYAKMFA
UniProt Q13724: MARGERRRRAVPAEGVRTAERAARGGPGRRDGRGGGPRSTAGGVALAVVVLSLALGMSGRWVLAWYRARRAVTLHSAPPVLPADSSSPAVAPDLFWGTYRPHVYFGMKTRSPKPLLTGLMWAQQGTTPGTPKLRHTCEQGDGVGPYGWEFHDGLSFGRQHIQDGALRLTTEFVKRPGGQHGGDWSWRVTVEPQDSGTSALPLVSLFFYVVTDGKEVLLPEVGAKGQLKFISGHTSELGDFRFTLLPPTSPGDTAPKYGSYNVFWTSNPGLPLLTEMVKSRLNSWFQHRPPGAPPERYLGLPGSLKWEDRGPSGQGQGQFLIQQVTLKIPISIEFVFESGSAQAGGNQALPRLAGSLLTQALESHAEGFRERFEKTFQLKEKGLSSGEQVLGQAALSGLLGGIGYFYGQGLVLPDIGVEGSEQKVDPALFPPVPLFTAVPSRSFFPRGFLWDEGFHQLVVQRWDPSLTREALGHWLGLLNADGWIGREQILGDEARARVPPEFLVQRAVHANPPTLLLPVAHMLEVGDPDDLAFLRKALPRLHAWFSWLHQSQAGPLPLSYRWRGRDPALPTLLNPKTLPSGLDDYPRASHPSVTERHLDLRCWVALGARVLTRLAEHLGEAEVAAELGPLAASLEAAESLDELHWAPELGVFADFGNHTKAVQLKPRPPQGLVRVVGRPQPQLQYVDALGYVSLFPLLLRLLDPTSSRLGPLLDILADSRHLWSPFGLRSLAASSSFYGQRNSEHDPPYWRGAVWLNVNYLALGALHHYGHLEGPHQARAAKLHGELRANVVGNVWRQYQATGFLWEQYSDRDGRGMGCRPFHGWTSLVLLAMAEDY
UniProt Q13907: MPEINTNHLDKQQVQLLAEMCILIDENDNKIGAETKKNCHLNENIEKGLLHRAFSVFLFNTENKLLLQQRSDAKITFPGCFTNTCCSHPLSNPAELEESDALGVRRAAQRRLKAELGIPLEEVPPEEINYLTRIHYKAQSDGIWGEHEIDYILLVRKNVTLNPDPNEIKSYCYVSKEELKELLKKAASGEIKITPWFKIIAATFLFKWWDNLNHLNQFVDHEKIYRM
UniProt Q13277: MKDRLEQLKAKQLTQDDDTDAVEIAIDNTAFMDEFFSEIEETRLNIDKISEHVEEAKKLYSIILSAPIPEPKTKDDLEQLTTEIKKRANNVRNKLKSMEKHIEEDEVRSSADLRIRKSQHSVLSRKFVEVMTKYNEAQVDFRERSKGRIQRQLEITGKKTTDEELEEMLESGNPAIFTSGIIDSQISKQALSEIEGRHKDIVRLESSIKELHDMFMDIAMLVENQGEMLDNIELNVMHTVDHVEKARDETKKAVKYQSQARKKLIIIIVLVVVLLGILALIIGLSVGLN
UniProt Q10589, whole entry: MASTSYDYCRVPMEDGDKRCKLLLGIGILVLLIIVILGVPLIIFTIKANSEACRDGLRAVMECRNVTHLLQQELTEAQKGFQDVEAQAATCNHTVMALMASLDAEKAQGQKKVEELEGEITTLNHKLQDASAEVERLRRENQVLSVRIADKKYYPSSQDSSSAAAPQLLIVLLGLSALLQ
UniProt Q04917: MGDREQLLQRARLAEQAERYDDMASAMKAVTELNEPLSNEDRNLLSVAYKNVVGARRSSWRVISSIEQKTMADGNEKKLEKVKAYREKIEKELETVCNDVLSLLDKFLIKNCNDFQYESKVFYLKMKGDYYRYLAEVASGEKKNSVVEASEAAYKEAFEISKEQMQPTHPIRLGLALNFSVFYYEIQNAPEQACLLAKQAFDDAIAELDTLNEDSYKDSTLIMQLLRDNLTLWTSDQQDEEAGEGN
UniProt Q06323: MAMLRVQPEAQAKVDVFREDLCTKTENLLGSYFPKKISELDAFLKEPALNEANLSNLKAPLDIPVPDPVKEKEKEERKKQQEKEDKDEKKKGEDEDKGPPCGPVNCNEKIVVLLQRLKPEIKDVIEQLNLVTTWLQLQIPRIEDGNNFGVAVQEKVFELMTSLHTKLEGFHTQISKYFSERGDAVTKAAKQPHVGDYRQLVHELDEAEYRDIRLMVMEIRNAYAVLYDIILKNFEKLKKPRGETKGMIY
UniProt Q14137: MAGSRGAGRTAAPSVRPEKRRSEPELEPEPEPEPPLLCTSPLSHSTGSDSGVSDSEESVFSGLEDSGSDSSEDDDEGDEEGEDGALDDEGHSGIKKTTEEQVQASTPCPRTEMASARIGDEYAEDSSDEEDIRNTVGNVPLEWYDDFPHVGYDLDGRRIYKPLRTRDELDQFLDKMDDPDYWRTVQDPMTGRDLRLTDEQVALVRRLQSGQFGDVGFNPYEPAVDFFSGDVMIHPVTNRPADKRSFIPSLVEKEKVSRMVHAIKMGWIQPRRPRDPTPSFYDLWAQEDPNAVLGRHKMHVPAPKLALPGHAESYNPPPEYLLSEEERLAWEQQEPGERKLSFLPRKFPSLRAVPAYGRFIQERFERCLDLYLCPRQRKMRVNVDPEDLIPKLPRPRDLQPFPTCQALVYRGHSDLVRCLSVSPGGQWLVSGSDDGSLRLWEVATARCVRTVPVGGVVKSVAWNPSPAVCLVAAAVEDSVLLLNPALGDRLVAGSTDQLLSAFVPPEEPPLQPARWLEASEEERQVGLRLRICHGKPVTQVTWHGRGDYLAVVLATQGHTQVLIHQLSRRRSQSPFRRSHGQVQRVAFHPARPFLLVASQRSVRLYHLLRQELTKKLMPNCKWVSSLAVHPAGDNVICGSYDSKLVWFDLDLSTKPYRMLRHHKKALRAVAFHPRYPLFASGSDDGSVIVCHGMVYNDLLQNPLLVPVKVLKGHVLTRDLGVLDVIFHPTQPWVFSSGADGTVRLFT
UniProt Q13094: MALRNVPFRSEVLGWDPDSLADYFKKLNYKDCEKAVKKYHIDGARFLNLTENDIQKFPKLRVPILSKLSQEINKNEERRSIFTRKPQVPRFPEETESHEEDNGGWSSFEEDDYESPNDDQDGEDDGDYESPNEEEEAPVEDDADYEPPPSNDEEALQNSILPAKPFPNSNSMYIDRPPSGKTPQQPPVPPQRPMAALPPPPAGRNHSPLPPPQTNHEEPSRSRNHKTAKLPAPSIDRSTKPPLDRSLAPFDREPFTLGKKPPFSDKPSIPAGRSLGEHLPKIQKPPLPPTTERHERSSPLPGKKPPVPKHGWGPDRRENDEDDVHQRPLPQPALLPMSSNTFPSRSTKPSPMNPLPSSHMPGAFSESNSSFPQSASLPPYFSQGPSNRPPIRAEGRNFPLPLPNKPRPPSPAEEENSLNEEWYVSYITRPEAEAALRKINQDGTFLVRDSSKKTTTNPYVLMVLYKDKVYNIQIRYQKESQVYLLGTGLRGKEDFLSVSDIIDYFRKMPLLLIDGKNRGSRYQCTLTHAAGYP
UniProt Q01130: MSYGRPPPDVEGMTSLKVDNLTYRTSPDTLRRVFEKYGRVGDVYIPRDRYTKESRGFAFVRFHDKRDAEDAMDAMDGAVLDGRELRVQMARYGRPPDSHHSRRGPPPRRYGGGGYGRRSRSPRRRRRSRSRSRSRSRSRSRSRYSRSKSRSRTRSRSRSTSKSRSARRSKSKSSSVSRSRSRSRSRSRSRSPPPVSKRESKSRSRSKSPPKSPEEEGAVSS
UniProt Q13330: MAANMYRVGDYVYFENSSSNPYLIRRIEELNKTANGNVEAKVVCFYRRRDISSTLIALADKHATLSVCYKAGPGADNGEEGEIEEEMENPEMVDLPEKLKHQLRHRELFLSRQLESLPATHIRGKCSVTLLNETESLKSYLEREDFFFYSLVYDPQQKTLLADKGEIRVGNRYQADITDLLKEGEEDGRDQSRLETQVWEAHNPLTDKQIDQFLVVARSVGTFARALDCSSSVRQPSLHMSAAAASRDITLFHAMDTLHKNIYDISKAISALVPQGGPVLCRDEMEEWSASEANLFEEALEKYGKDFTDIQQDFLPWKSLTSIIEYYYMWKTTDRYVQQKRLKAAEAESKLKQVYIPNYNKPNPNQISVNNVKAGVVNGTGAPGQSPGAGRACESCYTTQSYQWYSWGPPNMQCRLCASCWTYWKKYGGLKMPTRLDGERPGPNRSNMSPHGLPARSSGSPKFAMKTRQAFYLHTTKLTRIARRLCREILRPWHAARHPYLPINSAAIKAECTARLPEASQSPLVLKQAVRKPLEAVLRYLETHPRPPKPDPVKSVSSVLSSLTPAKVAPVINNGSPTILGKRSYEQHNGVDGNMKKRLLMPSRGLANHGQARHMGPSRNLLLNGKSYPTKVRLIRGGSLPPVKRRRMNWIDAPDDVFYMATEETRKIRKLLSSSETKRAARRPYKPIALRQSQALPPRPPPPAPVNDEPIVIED
UniProt Q01085: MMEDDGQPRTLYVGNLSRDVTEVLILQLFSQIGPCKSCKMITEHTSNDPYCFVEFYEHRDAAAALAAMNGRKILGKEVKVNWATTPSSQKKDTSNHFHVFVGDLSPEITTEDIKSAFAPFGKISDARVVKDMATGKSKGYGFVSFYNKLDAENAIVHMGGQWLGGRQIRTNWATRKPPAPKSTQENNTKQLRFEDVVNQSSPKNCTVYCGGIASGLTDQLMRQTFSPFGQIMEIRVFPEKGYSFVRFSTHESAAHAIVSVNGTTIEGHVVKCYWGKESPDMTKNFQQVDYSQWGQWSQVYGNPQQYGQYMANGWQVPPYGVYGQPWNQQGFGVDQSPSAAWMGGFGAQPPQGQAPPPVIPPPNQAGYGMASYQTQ

Compound in this assay: Nc1ncnc2c1ncn2[C@@H]1O[C@H](COP(=O)(O)OP(=O)(O)OP(=O)(O)O)[C@@H](O)[C@H]1O [adenosine triphosphate]
The assay is described as follows: NP40-soluble protein abundance relative to vehicle (solubility fold change) (ratio); higher = more soluble protein in presence of ATP. The essentials: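 Data come from three independent experiments in which Dounce-homogenised Jurkat crude lysate was treated at eight concentrations from 0.1 to 10 mM. Treatment ran 10 min at room temperature and then 3 min at 37 °C, after which 0.8% NP40 and benzonase were added for 60 min at 4 °C before ultracentrifugation. The supernatant underwent TMT labelling and LC-MS/MS, and vsn-normalised intensities were expressed as fold change against the detergent-processed vehicle in each replicate.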

± gives the standard deviation of the averaged measurements. The list shows a part of the results, in another mix than the full data.

In the case of UniProt Q08209 and related entries, the NP40-soluble protein abundance reads like this: (concentration: 1mM) 0.938 ± 0.017; (concentration: 2mM) 0.962 ± 0.047; (concentration: 4mM) 0.94 ± 0.025; (concentration: 6mM) 0.952 ± 0.043; (concentration: 8mM) 0.944 ± 0.043; (concentration: 10mM) 0.919 ± 0.047.

For TAF10 (UniProt Q12962), the NP40-soluble protein abundance (concentration: 1mM) came out at 0.988 ± 0.13; the NP40-soluble protein abundance (concentration: 2mM) came to 1.12 ± 0.076; the NP40-soluble protein abundance (concentration: 4mM) was found to be 1.1 ± 0.013; the NP40-soluble protein abundance (concentration: 6mM) came to 1.11 ± 0.16; the NP40-soluble protein abundance (concentration: 8mM) came out at 0.996 ± 0.085; the NP40-soluble protein abundance (concentration: 10mM) came to 1.02 ± 0.024.

Consider FABP5 (UniProt Q01469), for which the NP40-soluble protein abundance is 0.965 ± 0.027 (concentration: 1mM); 0.956 ± 0.031 (concentration: 2mM); 0.908 ± 0.012 (concentration: 4mM); 0.951 ± 0.05 (concentration: 6mM); 0.89 ± 0.013 (concentration: 8mM); 0.924 ± 0.033 (concentration: 10mM).

Take PPID (UniProt Q08752): the NP40-soluble protein abundance is, setting by setting: (concentration: 1mM) 0.952 ± 0.023; (concentration: 2mM) 0.946 ± 0.013; (concentration: 4mM) 0.916 ± 0.013; (concentration: 6mM) 0.957 ± 0.017; (concentration: 8mM) 0.904 ± 0.034; (concentration: 10mM) 0.905 ± 0.034.

As to UniProt Q13724 and related entries, the NP40-soluble protein abundance turned out to be 1.1 ± 0.12 (concentration: 1mM); 1.06 ± 0.085 (concentration: 2mM); 1.08 ± 0.088 (concentration: 4mM); 1.01 ± 0.15 (concentration: 6mM); 1.1 ± 0.083 (concentration: 8mM); 1.08 ± 0.077 (concentration: 10mM).

For IDI1 (UniProt Q13907), the NP40-soluble protein abundance (concentration: 1mM) was found to be 0.945 ± 0.059; the NP40-soluble protein abundance (concentration: 2mM) was 0.982 ± 0.068; the NP40-soluble protein abundance (concentration: 4mM) is 0.93 ± 0.053; the NP40-soluble protein abundance (concentration: 6mM) is 0.902 ± 0.051; the NP40-soluble protein abundance (concentration: 8mM) amounted to 0.913 ± 0.028; the NP40-soluble protein abundance (concentration: 10mM) stood at 0.928 ± 0.049.

In the case of UniProt Q13277 and related entries, the NP40-soluble protein abundance worked out at 0.954 ± 0.028 (concentration: 1mM); 0.991 ± 0.029 (concentration: 2mM); 0.961 ± 0.042 (concentration: 4mM); 0.967 ± 0.023 (concentration: 6mM); 0.928 ± 0.068 (concentration: 8mM); 0.941 ± 0.03 (concentration: 10mM).

As for UniProt Q10589 and related entries, the NP40-soluble protein abundance was found to be 1.07 ± 0.021 (concentration: 1mM); 1.08 ± 0.038 (concentration: 2mM); 1.2 ± 0.15 (concentration: 4mM); 1.17 ± 0.024 (concentration: 6mM); 1.17 ± 0.16 (concentration: 8mM); 1.09 ± 0.1 (concentration: 10mM).

YWHAH (UniProt Q04917): the NP40-soluble protein abundance by setting is: (concentration: 1mM) 0.808 ± 0.19; (concentration: 2mM) 0.864 ± 0.019; (concentration: 4mM) 0.708 ± 0.12; (concentration: 6mM) 0.892 ± 0.047; (concentration: 8mM) 0.893 ± 0.041; (concentration: 10mM) 0.77 ± 0.044.

In the case of UniProt Q06323 and related entries, the NP40-soluble protein abundance is 0.886 ± 0.15 (concentration: 1mM); 0.836 ± 0.094 (concentration: 2mM); 0.86 ± 0.061 (concentration: 4mM); 0.858 ± 0.059 (concentration: 6mM); 0.909 ± 0.027 (concentration: 8mM); 0.793 ± 0.093 (concentration: 10mM).

For the target BOP1 (UniProt Q14137), the NP40-soluble protein abundance (concentration: 1mM) turned out to be 1.04 ± 0.015; the NP40-soluble protein abundance (concentration: 2mM) is 1.08 ± 0.05; the NP40-soluble protein abundance (concentration: 4mM) was found to be 1.08 ± 0.028; the NP40-soluble protein abundance (concentration: 6mM) amounted to 1.07 ± 0.047; the NP40-soluble protein abundance (concentration: 8mM) came to 1.03 ± 0.017; the NP40-soluble protein abundance (concentration: 10mM) was 1.07 ± 0.03.

In the case of UniProt Q13094 and related entries, the NP40-soluble protein abundance is 0.956 ± 0.053 (concentration: 1mM); 0.96 ± 0.024 (concentration: 2mM); 0.935 ± 0.038 (concentration: 4mM); 0.962 ± 0.043 (concentration: 6mM); 0.929 ± 0.034 (concentration: 8mM); 0.941 ± 0.028 (concentration: 10mM).

On to UniProt Q01130 and related entries, for which the NP40-soluble protein abundance turned out to be 1.24 ± 0.12 (concentration: 1mM); 1.23 ± 0.075 (concentration: 2mM); 1.24 ± 0.053 (concentration: 4mM); 1.31 ± 0.059 (concentration: 6mM); 1.22 ± 0.025 (concentration: 8mM); 1.24 ± 0.056 (concentration: 10mM).

As to UniProt Q13330 and related entries, the NP40-soluble protein abundance is, setting by setting: (concentration: 1mM) 1.06 ± 0.038; (concentration: 2mM) 1.03 ± 0.012; (concentration: 4mM) 1.017 ± 0.0059; (concentration: 6mM) 1.01 ± 0.04; (concentration: 8mM) 1.07 ± 0.035; (concentration: 10mM) 1.06 ± 0.041.

As to UniProt Q01085 and related entries, the NP40-soluble protein abundance (concentration: 1mM) is 0.974 ± 0.031; the NP40-soluble protein abundance (concentration: 2mM) is 0.984 ± 0.043; the NP40-soluble protein abundance (concentration: 4mM) is 0.97 ± 0.054; the NP40-soluble protein abundance (concentration: 6mM) was 0.968 ± 0.054; the NP40-soluble protein abundance (concentration: 8mM) came out at 1.02 ± 0.082; the NP40-soluble protein abundance (concentration: 10mM) is 0.957 ± 0.067.
